Laboratory results as given in patent US20210346336A1, “FURAN DERIVATIVES AS BROMODOMAIN INHIBITORS” (GlaxoSmithKline Intellectual Property (No.2) Limited, priority 2018, published 2021).
Some results were stated once for a whole list of compounds, not compound by compound.

Biological target: T1, BRD4 BD2 (Homo sapiens, UniProt O60885, Y97A)
T1 construct: BRD4 (1-477) (Y97A) and (Y390A); made in house; host or cells: E. coli (pET15b vector)
Experiment: BRD4 BD2 TR-FRET competition assay (mutant tandem bromodomain)
Type: binding
Conditions: BRD4 BD2 pIC50 − BRD4 BD1 pIC50; in at least one of the TR-FRET assays
Method: Bromodomain binding was assessed utilising a time resolved fluorescent resonance energy transfer (TR-FRET) competition assay. To enable this approach a known, high affinity, pan-BET interacting small molecule was labelled with Alexa Fluor® 647, which is a far-red-fluorescent dye (Reference Compound X). Reference Compound X acts as a reporter of bromodomain binding and is the acceptor fluorophore component of the TR-FRET pair. Europium chelate, conjugated to an anti-6*His antibody, was utilised as the donor fluorophore in the TR-FRET pair. […] A TR-FRET signal is generated when the donor and acceptor fluorophores are in close proximity, between 20-80 Å, which is enabled in this assay by binding of Reference Compound X to the bromodomain protein.
Assay Principle: In order to generate a TR-FRET signal, donor fluorophore is excited by a laser at λ337 nm, which subsequently leads to emission at λ618 nm. If the acceptor fluorophore is in close proximity then energy transfer can occur, which leads to emission of Alexa Fluor® 647 at λ665 nm. In the presence of competitor compound, Reference Compound X can be displaced from binding to the bromodomain. If displacement occurs, the acceptor fluorophore is no longer in proximity to the donor fluorophore, which prevents fluorescent energy transfer and, subsequently, a loss of Alexa Fluor®647 emission at λ665 nm.
The competition of the compounds of formula (I) with Reference Compound X for binding to the BET family (BRD2, BRD3, BRD4 and BRDT) was assessed using protein truncates spanning both bromodomain 1 (BD1) and bromodomain 2 (BD2). In order to monitor differential binding to either BD1 or BD2, single residue mutations of key tyrosines to alanine were made in the acetyl lysine binding pockets. To validate this approach, a double residue mutant tandem domain protein was produced for each of the BET family members. Utilising a Fluorescence Polarisation approach, binding affinities for each of the single and double mutants for Reference Compound X were determined.
Final purification was completed by Superdex 200 prep grade size exclusion column. Purified protein was stored at −80° C. in 20 mM HEPES pH 7.5 and 100 mM NaCl.
Protocol for Bromodomain BRD2, 3, 4 and T, BD1+BD2 mutant TR-FRET competition assays: All assay components were dissolved in an assay buffer composing of 50 mM HEPES pH7.4, 50 mM NaCl, 5% Glycerol, 1 mM DTT and 1 mM CHAPS. […] The solution containing bromodomain and Reference Compound X was added to dose response dilutions of test compound or DMSO vehicle (a maximum of 0.5% DMSO is used in this assay) in Greiner 384 well black low volume microtitre plates and subsequently incubated for 30 minutes at rt. An equal volume of 3 nM of anti-6*His Europium chelate was added to all wells, followed by a further 30 minute incubation at rt. TR-FRET was detected using a Perkin Elmer Multimode plate reader, by exciting the donor fluorophore at λ337 nm and subsequently, after a delay of 50 μsecs, measuring emission of the donor and acceptor fluorophores at λ615 nm and λ665 nm, respectively. In order to control these assays, 16 replicates each of uninhibited (DMSO vehicle) and inhibited (10*IC50 concentrations of Example 11 of WO 2011/054846A1) TR-FRET assays were included on every microtitre plate.
cA four parameter curve fit of the following form was then applied:
y=a+((b−a)/(1+(10^x/10^c)^d) • Where ‘a’ is the minimum, ‘b’ is the […], ‘c’ is the pIC50 and ‘d’ is the […].
Those of skill in the art will recognise that in vitro binding assays and cell-based assays for functional activity are subject to experimental variability. Accordingly, it is to be understood that the pIC50 values given below are exemplary only. pIC50 values are expressed as log10 units.

SMILES	Selectivity for BRD4 BD2 over BRD4 BD1 [log units]
CNC(=O)c1cc(C(=O)N[C@H]2CC[C@H](O)CC2)c(C(CC#N)c2cccc(Cl)c2)o1 (mixture of isomers) [Example 9, (+/−) 5-(1-(3-Chlorophenyl)-2-cyanoethyl)-N^4-((1r,4r)-4-hydroxycyclohexyl)-N^2-methylfuran-2,4-dicarboxamide]	≥ 3
CNC(=O)c1cc(C(=O)N[C@H]2CC[C@H](O)CC2)c([C@@H](C)c2ccc(OC)c(Cl)c2)o1 (single isomer, unassigned) [Example 7, 5-((S*)-1-(3-Chloro-4-methoxyphenyl)ethyl)-N^4-((1r,4S)-4-hydroxycyclohexyl)-N^2-methylfuran-2,4-dicarboxamide]	≥ 3
CNC(=O)c1cc(C(=O)NC2CC2)c(C(C)c2ccnc3[nH]ccc23)o1 (stereo not shown) [Example 111, 5-(1-(1H-pyrrolo[2,3-b]pyridin-4-yl)ethyl)-N^4-cyclopropyl-N^2-methylfuran-2,4-dicarboxamide]	≥ 2
CNC(=O)c1cc(C(=O)N[C@H]2CC[C@H](O)CC2)c([C@@H](CC#N)c2ccccc2)o1 (single isomer, unassigned) [Example 36, 5-((S*)-2-Cyano-1-phenylethyl)-N^4-((1r,4S)-4-hydroxycyclohexyl)-N^2-methylfuran-2,4-dicarboxamide]	≥ 3
CNC(=O)c1cc(C(=O)N[C@H]2CC[C@H](O)CC2)c([C@H](C)c2cc(Cl)cc(Cl)c2)o1 (single isomer, unassigned) [Example 82, 5-((R*)-1-(3,5-Dichlorophenyl)ethyl)-N4-((1r,4R)-4-hydroxycyclohexyl)-N^2-methylfuran-2,4-dicarboxamide]	≥ 2
CNC(=O)c1cc(C(=O)N[C@H]2CC[C@H](O)CC2)c([C@@H](CC#N)c2cccc(Cl)c2)o1 (single isomer, unassigned) [Example 10]	≥ 3
CNC(=O)c1cc(C(=O)N[C@H]2CC[C@H](O)CC2)c([C@@H](OC)c2cccc(Cl)c2)o1 (single isomer, unassigned) [Example 12, 5-((S*)-(3-chlorophenyl)(methoxy)methyl)-N^4-((1r,4S)-4-hydroxycyclohexyl)-N^2-methylfuran-2,4-dicarboxamide]	≥ 3
